Measurements reported in PubChem BioAssay AID504786 (Drosophila RNAi Screening Center, 2011)
Test: 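Knock-downs reducing HIF reporter induction by the iron chelator DFO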 (primary screen). System: Drosophila S2 cells with a stable HIF luciferase reporter. Knock-down reagent: long dsRNA against Drosophila genes, about 0.2 µg dsRNA per well of a 384-well plate. Time to read-out: three days of knock-down, then 20 h of DFO before reading. Challenge: desferrioxamine (DFO) at 100 µM, an iron chelator that mimics hypoxia, for 20 h. Measurement: 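HIF reporter luminescence in cells given 100 µM DFO for 20 h, using the mouse ldh-a hypoxia-response element, scored as per-plate z-scores; higher means greater loss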. Reading the numbers: z-score: higher = stronger loss of HIF reporter signal.
The deposit covers about 21,000 reagents; this is a random part of those with a known target gene and a result. 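Primary screen; positive scores mean lost reporter signal, so the sign may be inverted from the usual convention.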 Not all columns of the deposit are shown.

| gene | DRSC id | z-score, replicate 1 | z-score, replicate 2 | z-score, replicate 3 |
| --- | --- | --- | --- | --- |
| RpS10a | DRSC14161 | -0.3 | -0.6 | – |
| CG17726 | DRSC15255 | -1.2 | -0.4 | – |
| Ptp4E | DRSC18701 | -0.4 | -0.2 | – |
| CG3301 | DRSC15471 | -0.2 | -0.2 | – |
| tutl | DRSC00441 | -0.2 | -0.2 | – |
| tutl | DRSC00442 | -0.2 | -0.2 | – |
| tutl | DRSC00443 | 0.1 | -0.1 | – |
| CG8507 | DRSC16435 | -0.3 | -0.4 | – |
| ago | DRSC08463 | 0.3 | -0.3 | – |
| sip1 | DRSC03609 | 0.6 | 2 | – |
| CG31199 | DRSC15284 | -0.2 | -0.5 | – |
| CG3355 | DRSC00598 | 0 | 0.4 | – |
| CG13501 | DRSC04146 | -0.1 | 0 | – |
| CG9948 | DRSC11104 | -0.2 | 0.4 | – |
| Gmap | DRSC19988 | -0.4 | -0.5 | – |
| Gmap | DRSC20057 | -0.4 | -0.3 | – |
| CG4291 | DRSC00650 | 0.1 | -0.3 | – |
| CG31635 | DRSC02273 | -0.5 | -0.6 | – |
| CG31635 | DRSC02274 | -0.4 | -0.6 | – |
| csul | DRSC07599 | -0.4 | -0.5 | – |
| PolD1 | DRSC11138 | -0.1 | 0.5 | – |
| Ocho | DRSC11239 | -0.2 | -0.4 | – |
| CG42663 | DRSC06158 | -0.6 | -0.7 | – |
| CG42663 | DRSC06404 | -0.3 | 0.1 | -0.3 |
| CG9875 | DRSC04585 | -0.3 | -0.5 | – |
| Cks30A | DRSC03292 | -0.2 | -0.6 | – |
| CG5114 | DRSC10482 | -0.1 | 0.9 | – |
| Tengl4 | DRSC15620 | -0.3 | -0.3 | – |
| Whamy | DRSC14574 | -0.4 | -0.6 | – |
| t-Grip91 | DRSC01506 | -0.3 | -0.1 | – |
| ari-1 | DRSC20308 | -0.3 | -0.6 | – |
| TwdlY | DRSC19153 | -0.2 | -0.2 | – |
| CG3419 (retired record) | DRSC04368 | 0.1 | -0.3 | – |
| CG3419 (retired record) | DRSC04369 | 0 | -0.3 | – |

2 entries already listed, arranged by “z-score, replicate 1”, ascending.
| gene | DRSC id | z-score, replicate 1 | z-score, replicate 2 | z-score, replicate 3 |
| --- | --- | --- | --- | --- |
| CG31635 | DRSC02273 | -0.5 | -0.6 | – |
| CG4291 | DRSC00650 | 0.1 | -0.3 | – |
